Laboratory results: PubChem BioAssay AID743454 (Peter MacCallum Cancer Centre, 2014)

Purpose: 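Genes whose loss kills vorinostat-resistant colon cancer cells under vorinostat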 (primary screen)
System: human HCT116-VR colon cancer cells, selected for vorinostat resistance
Knock-down reagent: siRNA pool against human genes, 40 nM siRNA pool
Timing: vorinostat for 24 h, read-out about 72 h after transfection
Challenge: vorinostat at 2.5 µM final
Read-out: 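Two measures, CellTiter-Fluor viability and luminescent caspase 3/7 activity, each as fold change against same-plate mock wells, mean of duplicates, then screen-wide robust z-score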
Reading the numbers: viability robust z-score: higher = more viable cells than screen typical; caspase robust z-score: higher = more caspase 3/7 activity than screen typical
Call rule: 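a knock-down is a hit when classed RV1 or RV2 for lowered viability, or CA1 or CA2 for caspase activation; those lethal without drug were dropped; hits were retested singly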
Here is one part, drawn at random, of about 18,000 reagents tested. In the full data, 450 (2.5%) got an active call. 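Single biological run; no consistent viability z cut-off exists, so the class columns, not z-scores, define the calls.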

ADGRG4: viability hit class = no change; caspase hit class = no change; viability robust z-score = 1.66; caspase robust z-score = -0.36; Call = inactive
TBX4: viability hit class = no change; caspase hit class = no change; viability robust z-score = -0.38; caspase robust z-score = 0.18; Call = inactive
OR5H14: viability hit class = no change; caspase hit class = no change; viability robust z-score = 0.12; caspase robust z-score = 4.38; Call = inactive
CTSC: viability hit class = no change; caspase hit class = no change; viability robust z-score = -1.46; caspase robust z-score = 2.02; Call = inactive
CACNG2: viability hit class = no change; caspase hit class = no change; viability robust z-score = 1.17; caspase robust z-score = 0.08; Call = inactive
VWC2L: viability hit class = no change; caspase hit class = no change; viability robust z-score = -0.73; caspase robust z-score = 2.01; Call = inactive
GPR12: viability hit class = RV2 (reduced viability); caspase hit class = no change; viability robust z-score = -3.11; caspase robust z-score = 1.35; Call = active
C5orf24: viability hit class = no change; caspase hit class = no change; viability robust z-score = 0.92; caspase robust z-score = 0.18; Call = inactive
RBM42: viability hit class = RV2 (reduced viability); caspase hit class = no change; viability robust z-score = -3.66; caspase robust z-score = -0.48; Call = active
EVI2A: viability hit class = no change; caspase hit class = no change; viability robust z-score = 1.32; caspase robust z-score = -0.34; Call = inactive
CIRBP-AS1: viability hit class = no change; caspase hit class = no change; viability robust z-score = 0.55; caspase robust z-score = 0.75; Call = inactive
CFAP45: viability hit class = no change; caspase hit class = no change; viability robust z-score = 0.34; caspase robust z-score = 0.42; Call = inactive
EML3: viability hit class = no change; caspase hit class = no change; viability robust z-score = 0.05; caspase robust z-score = -0.86; Call = inactive
TRPT1: viability hit class = no change; caspase hit class = no change; viability robust z-score = -1.28; caspase robust z-score = 2.06; Call = inactive
TKTL2: viability hit class = no change; caspase hit class = no change; viability robust z-score = -0.96; caspase robust z-score = 0.01; Call = inactive
SSU72: viability hit class = no change; caspase hit class = no change; viability robust z-score = -0.1; caspase robust z-score = 0.04; Call = inactive

An excerpt from above, showing only “viability robust z-score”.
EVI2A = 1.32
CIRBP-AS1 = 0.55

The listing continues.
PPM1J: viability hit class = no change; caspase hit class = no change; viability robust z-score = -0.9; caspase robust z-score = 0.14; Call = inactive
SCRG1: viability hit class = no change; caspase hit class = no change; viability robust z-score = 0.28; caspase robust z-score = 1.86; Call = inactive
GRHL3: viability hit class = no change; caspase hit class = no change; viability robust z-score = -2.04; caspase robust z-score = 2; Call = inactive
ZBED4: viability hit class = no change; caspase hit class = no change; viability robust z-score = 0.06; caspase robust z-score = -1.06; Call = inactive
PSMA5: viability hit class = no change; caspase hit class = no change; viability robust z-score = -3.72; caspase robust z-score = 3.12; Call = inactive
BBS7: viability hit class = no change; caspase hit class = no change; viability robust z-score = -0.68; caspase robust z-score = 2.79; Call = inactive
YWHAG: viability hit class = no change; caspase hit class = no change; viability robust z-score = -0.52; caspase robust z-score = 1.79; Call = inactive
MSI2: viability hit class = no change; caspase hit class = no change; viability robust z-score = 0.64; caspase robust z-score = -0.54; Call = inactive
BTG4: viability hit class = no change; caspase hit class = no change; viability robust z-score = -0.23; caspase robust z-score = 3.58; Call = inactive
CLIC4: viability hit class = no change; caspase hit class = no change; viability robust z-score = 0.26; caspase robust z-score = 0.09; Call = inactive
AIFM3: viability hit class = no change; caspase hit class = no change; viability robust z-score = -0.7; caspase robust z-score = 0.58; Call = inactive
